The target in test [1] is T1, RBP45d (Arabidopsis thaliana, UniProt Q8VXZ9 1-425).
T1 sequence: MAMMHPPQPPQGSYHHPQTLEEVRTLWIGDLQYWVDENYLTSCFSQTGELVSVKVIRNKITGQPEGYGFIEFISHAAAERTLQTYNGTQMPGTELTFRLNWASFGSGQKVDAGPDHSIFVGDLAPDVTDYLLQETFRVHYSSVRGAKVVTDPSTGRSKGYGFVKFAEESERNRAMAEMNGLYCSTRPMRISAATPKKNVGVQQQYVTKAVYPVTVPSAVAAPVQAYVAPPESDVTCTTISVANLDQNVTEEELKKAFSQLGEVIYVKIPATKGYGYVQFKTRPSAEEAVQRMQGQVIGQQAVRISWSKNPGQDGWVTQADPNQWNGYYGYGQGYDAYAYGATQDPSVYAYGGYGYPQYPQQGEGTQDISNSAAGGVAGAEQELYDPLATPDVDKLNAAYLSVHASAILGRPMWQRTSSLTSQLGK
The experiment in a line: split reporter.

The target of test [2] is T2, RBP47b (Arabidopsis thaliana) (UniProt Q0WW84).
T2 sequence: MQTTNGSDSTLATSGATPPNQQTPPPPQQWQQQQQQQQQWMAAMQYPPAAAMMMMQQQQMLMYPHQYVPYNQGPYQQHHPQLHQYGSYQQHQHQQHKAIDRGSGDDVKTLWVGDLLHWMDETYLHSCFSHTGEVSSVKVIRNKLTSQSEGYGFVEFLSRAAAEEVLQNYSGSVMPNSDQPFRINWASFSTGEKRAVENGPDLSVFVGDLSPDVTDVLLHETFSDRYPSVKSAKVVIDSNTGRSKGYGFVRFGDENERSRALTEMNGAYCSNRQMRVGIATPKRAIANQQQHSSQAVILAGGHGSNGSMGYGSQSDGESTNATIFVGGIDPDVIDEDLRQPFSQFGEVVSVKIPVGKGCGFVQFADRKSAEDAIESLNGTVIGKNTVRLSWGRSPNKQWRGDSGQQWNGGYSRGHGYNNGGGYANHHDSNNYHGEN
The experiment in a line: split reporter.

Test [3] has as its target T1, RBP45d. As to the kind of experiment: two-hybrid.
Test [4] addresses T3, U1A (Arabidopsis thaliana) (UniProt Q39244).
T3 sequence: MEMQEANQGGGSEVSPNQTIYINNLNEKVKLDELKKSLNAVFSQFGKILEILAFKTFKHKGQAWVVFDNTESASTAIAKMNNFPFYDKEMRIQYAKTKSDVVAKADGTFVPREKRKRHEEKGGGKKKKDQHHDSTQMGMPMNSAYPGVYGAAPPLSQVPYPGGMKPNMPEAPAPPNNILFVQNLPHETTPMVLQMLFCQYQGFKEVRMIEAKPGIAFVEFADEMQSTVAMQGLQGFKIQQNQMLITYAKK
As to the kind of experiment: two-hybrid.

The target in test [5] is T4, U1-70K (Arabidopsis thaliana), Q42404.
T4 chain: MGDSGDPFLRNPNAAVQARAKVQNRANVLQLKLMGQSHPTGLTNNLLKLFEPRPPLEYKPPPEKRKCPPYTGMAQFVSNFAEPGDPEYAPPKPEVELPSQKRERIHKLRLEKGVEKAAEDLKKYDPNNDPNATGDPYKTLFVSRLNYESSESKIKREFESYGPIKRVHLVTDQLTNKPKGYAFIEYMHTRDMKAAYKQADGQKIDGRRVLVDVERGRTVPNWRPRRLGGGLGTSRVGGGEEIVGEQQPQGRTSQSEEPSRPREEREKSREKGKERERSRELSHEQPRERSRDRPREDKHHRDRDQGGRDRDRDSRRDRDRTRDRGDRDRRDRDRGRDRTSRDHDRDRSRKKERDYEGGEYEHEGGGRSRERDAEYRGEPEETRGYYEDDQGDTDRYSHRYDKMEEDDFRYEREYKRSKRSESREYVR
The experiment in a line: two-hybrid. Conditions: remark: other sources report otherwise.

No constants are given. Whether binding was seen depends on the method and setting. For some assays here: In cells and extracts the contact can be indirect. Some entries that bind do so weakly or less than the wild type.

B1: PRP39a (protein, UniProt Q93ZR3 1-768)
chain: MGDSEAMVSEGYTSAPYGDYNASAATVESTGQETAPIVDASHSVNNDSLVNGTAPVENGSATDNVAVTAPAAEHGDNTGSTLSTEEERLWNIVRANSLEFNAWTALIDETERIAQDNIAKIRKVYDAFLAEFPLCYGYWKKFADHEARVGAMDKVVEVYERAVLGVTYSVDIWLHYCTFAINTYGDPETIRRLFERALVYVGTDFLSSPLWDKYIEYEYMQQDWSRVALIYTRILENPIQNLDRYFSSFKELAETRPLSELRSAEESAAAAVAVAGDASESAASESGEKADEGRSQVDGSTEQSPKLESASSTEPEELKKYVGIREAMYIKSKEFESKIIGYEMAIRRPYFHVRPLNVAELENWHNYLDFIERDGDFNKVVKLYERCVVTCANYPEYWIRYVTNMEASGSADLAENALARATQVFVKKQPEIHLFAARLKEQNGDIAGARAAYQLVHSEISPGLLEAVIKHANMEYRLGNLDDAFSLYEQVIAVEKGKEHSTILPLLYAQYSRFSYLVSRDAEKARRIIVEALDHVQPSKPLMEALIHFEAIQPPPREIDYLEPLVEKVIKPDADAQNIASSTEREELSLIYIEFLGIFGDVKSIKKAEDQHVKLFYPHRSTSELKKRSADDFLASDRTKMAKTYNGTPPAQPVSNAYPNAQAQWSGGYAAQPQTWPPAQAAPAQPQQWNPAYGQQAAYGAYGGYPAGYTAPQAPTPVPQAAAYGAYPAQTYPTQSYAPPVAAAAPAAAPVQQPAAAVAPQAYYNTYY
As to B1, the figures for the binding entry (with RBP45d [1]; in test [2]; with RBP45d [3]) were “binds”, “no binding” and “binds”, respectively.

B2: RBP45d (protein, UniProt Q8VXZ9 1-425)
chain: T1 sequence
In the case of B2, the binding result in test [4] is reported as “no binding”.

B3: RBP45d, Q8VXZ9 1-425 (protein)
chain: T1 sequence
With B3, the binding entry in test [5] is given as “no binding”.
